Reference: the supplement of paper PMC10849652
The list shows a part of the results.

Protein sequences, listed by entry. Tags and fused reporters are not part of them. Lines headed by an entry give the natural chain unless they say otherwise; changes in a name come on top.
UniProt Q9BZM5, whole entry, looked up: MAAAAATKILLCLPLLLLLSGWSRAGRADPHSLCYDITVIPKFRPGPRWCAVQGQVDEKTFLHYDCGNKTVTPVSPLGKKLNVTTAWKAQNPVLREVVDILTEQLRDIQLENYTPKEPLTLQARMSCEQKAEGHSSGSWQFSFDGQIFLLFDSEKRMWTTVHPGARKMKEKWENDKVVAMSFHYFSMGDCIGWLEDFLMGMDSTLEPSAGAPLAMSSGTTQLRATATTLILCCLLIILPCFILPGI
UniProt Q15836, whole entry, looked up: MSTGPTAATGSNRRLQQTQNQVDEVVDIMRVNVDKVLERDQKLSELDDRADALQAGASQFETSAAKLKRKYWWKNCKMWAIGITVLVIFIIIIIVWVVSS
UniProt Q9P275: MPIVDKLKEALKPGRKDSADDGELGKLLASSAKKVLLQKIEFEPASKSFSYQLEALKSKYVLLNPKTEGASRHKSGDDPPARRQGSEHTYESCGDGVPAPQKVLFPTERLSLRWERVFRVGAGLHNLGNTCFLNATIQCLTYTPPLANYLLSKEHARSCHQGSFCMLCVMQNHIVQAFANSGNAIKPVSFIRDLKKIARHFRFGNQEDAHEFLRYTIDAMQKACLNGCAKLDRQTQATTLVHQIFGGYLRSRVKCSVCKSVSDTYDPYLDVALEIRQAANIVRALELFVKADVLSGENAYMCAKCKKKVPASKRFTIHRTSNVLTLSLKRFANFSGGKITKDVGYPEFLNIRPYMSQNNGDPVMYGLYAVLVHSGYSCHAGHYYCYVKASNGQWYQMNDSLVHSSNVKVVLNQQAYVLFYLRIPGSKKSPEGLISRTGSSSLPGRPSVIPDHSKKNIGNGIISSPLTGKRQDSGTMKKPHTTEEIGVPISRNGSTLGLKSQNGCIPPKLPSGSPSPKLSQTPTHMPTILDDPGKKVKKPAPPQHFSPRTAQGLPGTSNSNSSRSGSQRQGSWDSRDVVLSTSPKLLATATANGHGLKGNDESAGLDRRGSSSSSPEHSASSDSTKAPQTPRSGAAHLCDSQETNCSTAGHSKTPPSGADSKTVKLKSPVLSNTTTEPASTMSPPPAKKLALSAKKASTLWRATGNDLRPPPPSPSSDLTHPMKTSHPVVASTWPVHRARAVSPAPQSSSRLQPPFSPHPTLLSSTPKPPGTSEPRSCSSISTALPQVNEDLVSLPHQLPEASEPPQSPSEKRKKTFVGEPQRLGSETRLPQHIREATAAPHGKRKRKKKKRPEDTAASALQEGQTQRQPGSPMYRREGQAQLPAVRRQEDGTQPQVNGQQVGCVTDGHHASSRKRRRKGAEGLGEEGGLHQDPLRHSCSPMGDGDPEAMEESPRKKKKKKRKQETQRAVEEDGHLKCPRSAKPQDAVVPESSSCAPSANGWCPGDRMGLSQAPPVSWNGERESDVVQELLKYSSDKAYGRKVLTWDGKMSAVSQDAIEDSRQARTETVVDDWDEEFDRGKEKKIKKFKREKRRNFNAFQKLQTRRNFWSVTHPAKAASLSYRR
UniProt C9J7I0: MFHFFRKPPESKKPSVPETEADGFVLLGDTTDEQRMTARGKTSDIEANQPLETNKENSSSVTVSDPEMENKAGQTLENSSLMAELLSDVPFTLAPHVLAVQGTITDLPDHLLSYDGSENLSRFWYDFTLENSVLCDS
UniProt Q9BRU9: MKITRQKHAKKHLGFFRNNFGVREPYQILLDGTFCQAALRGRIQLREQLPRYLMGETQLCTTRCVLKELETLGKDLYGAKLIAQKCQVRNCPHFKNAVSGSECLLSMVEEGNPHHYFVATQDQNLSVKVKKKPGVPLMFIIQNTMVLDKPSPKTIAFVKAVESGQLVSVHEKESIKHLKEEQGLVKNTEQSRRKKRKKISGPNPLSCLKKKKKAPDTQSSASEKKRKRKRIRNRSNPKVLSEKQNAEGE
UniProt Q9Y4E8: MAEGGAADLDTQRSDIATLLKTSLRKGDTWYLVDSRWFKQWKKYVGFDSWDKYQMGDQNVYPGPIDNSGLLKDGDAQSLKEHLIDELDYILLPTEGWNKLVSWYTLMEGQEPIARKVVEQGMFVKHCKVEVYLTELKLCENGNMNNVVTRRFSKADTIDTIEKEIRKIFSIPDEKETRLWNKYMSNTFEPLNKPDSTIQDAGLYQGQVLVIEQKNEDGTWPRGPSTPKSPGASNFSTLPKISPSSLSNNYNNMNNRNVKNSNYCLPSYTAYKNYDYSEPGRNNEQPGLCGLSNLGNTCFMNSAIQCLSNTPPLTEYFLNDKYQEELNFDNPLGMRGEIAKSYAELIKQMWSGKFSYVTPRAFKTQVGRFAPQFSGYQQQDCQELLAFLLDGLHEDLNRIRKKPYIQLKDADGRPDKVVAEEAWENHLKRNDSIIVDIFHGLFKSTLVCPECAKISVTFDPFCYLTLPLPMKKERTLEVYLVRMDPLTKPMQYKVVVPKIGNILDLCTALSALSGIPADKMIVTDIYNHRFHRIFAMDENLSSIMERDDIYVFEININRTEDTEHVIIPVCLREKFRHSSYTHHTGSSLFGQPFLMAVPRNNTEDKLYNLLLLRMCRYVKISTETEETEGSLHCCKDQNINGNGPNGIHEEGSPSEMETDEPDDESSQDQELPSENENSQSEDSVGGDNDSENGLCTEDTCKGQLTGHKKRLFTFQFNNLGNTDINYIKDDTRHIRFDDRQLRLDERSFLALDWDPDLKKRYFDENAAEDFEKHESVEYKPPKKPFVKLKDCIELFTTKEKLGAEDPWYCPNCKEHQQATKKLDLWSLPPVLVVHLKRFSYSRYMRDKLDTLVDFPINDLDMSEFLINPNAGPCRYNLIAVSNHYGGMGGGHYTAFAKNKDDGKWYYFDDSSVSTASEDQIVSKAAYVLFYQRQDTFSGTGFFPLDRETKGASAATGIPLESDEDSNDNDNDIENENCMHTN
UniProt P55851: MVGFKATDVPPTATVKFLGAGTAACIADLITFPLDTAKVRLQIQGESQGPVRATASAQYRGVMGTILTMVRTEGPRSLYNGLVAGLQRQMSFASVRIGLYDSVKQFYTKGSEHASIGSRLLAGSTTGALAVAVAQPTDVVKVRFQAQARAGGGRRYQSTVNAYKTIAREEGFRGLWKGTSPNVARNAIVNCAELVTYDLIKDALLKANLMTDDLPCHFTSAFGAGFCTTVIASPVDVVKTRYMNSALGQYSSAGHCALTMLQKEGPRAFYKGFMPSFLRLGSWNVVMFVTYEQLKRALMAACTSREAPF
UniProt P46939: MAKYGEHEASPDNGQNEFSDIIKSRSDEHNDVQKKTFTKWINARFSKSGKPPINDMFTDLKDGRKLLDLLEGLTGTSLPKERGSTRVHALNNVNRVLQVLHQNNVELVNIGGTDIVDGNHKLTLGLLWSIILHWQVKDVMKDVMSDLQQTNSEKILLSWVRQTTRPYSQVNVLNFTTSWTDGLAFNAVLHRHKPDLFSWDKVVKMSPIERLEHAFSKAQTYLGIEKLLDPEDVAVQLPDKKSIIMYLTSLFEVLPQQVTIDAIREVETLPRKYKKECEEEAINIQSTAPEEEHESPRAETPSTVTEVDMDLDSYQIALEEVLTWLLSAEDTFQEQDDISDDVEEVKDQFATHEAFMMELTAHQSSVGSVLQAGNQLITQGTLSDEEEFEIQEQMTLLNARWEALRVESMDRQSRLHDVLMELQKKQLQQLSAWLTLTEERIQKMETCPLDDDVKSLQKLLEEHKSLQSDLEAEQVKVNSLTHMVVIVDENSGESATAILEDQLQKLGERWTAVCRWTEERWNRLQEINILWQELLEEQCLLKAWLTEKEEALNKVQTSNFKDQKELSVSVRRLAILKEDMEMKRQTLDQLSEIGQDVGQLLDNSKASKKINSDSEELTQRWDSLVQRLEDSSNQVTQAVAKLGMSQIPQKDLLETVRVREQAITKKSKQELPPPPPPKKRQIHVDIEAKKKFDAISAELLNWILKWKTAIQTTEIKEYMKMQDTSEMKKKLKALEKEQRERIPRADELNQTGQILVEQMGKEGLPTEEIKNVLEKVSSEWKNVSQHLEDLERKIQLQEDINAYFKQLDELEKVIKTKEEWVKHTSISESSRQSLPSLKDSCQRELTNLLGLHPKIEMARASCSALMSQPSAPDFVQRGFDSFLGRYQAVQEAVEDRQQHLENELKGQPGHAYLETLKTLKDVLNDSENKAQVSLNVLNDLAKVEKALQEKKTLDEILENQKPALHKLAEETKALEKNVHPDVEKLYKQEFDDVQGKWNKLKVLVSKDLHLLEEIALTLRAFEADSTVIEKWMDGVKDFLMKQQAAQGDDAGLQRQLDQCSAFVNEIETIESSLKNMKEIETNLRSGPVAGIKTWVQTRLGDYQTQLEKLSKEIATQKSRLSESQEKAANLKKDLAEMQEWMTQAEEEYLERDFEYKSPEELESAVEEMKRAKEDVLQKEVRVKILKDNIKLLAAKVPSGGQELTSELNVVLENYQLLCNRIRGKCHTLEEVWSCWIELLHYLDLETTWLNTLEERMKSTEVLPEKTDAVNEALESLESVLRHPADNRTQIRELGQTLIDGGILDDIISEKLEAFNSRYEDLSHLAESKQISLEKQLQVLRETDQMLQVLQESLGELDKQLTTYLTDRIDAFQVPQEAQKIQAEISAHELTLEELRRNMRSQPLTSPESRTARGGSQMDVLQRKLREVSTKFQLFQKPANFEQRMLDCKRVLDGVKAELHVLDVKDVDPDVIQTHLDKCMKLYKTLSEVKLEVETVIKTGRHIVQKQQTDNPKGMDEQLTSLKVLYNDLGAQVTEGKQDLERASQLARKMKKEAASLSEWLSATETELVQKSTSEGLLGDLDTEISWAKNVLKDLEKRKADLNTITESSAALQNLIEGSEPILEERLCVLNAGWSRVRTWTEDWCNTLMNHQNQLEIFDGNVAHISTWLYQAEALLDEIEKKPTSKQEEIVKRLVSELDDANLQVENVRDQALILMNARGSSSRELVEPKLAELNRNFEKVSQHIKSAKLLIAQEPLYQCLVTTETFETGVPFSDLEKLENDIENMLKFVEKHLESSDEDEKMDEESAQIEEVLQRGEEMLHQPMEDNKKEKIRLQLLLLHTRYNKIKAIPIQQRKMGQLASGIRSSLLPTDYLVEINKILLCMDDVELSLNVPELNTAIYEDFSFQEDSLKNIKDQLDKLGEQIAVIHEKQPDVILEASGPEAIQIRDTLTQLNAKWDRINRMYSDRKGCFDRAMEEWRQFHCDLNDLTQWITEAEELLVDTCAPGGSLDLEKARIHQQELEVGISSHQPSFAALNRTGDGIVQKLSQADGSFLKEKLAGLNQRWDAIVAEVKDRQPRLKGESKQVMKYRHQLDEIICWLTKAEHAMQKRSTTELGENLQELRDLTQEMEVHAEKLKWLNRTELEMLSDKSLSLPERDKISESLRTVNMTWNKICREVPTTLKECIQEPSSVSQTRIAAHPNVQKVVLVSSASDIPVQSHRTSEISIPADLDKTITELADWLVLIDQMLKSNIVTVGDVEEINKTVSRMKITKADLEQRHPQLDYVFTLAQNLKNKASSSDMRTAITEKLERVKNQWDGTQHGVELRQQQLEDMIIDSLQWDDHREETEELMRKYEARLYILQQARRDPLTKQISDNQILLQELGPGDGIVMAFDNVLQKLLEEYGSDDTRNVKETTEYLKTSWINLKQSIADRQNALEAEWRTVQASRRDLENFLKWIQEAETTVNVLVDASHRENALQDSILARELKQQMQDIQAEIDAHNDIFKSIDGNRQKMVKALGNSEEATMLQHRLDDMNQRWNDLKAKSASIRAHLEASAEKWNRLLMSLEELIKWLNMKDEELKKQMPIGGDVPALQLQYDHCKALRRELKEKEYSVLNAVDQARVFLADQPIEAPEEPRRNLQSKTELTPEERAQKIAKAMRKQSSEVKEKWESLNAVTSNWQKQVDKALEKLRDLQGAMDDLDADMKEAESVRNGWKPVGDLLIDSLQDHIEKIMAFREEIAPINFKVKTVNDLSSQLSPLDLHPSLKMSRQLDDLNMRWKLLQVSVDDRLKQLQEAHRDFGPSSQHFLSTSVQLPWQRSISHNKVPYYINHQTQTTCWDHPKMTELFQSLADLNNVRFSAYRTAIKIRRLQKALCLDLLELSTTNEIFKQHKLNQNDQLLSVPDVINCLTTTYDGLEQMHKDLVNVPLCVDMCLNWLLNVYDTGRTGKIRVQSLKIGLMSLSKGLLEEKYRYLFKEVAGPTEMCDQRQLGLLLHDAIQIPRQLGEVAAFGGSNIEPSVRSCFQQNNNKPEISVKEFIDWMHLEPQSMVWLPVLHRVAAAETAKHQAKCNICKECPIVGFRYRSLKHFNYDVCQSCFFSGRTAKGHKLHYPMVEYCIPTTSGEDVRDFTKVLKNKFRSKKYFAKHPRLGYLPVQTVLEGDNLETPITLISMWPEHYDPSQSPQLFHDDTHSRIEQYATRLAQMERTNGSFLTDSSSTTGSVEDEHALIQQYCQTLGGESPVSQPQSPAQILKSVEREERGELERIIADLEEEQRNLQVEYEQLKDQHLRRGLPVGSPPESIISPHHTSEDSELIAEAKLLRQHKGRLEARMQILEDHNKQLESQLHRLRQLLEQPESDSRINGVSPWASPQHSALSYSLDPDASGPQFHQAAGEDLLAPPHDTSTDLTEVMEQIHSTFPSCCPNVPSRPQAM

Experiments:
Experiment in all cases: log2 fold change, soluble protein after heating vs DMSO (PISA); higher = thermal stabilisation; K562 lysate, 10 uM; active = over 0.2 and 3.5 SD of the protein, either way, in both replicates (recomputed)
vemurafenib = compound: CCCS(=O)(=O)Nc1ccc(F)c(C(=O)c2c[nH]c3ncc(-c4ccc(Cl)cc4)cc23)c1F [vemurafenib]
Procedure, shortened: (§1)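 K562 pellets were dounce-homogenised in PBS pH 7.4 containing 1 mM MgCl2, and the crude extract, at 1 mg/mL protein, was exposed to 10 μM compound for 30 min. Aliquots were heated for 3 min across 48°C-58°C, pooled, brought to 0.5% NP-40 at 4°C and spun at 21,000xg for 90 min, with the supernatant taken as soluble protein. TMTpro 16plex LC-MS/MS with equalised channel sums quantified that protein. Values are log-two fold changes in thermal stability relative to solvent controls, taken from duplicates.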

[1] = compound: CCCS(=O)(=O)Nc1ccc(F)c(C(=O)c2c[nH]c3ncc(Cl)cc23)c1F
Procedure, shortened: as §1

[2] = compound: CC[C@@H]1C(=O)N(C)c2cnc(Nc3ccc(C(=O)NC4CCN(C)CC4)cc3OC)nc2N1C1CCCC1
Procedure, shortened: as §1

volasertib = compound: CC[C@@H]1C(=O)N(C)c2cnc(Nc3ccc(C(=O)N[C@H]4CC[C@H](N5CCN(CC6CC6)CC5)CC4)cc3OC)nc2N1C(C)C [volasertib]
Procedure, shortened: as §1

[3] = compound: CCn1c(C(=O)N(C2CC2)C2CC2)cc2c3c(ncn3C)c(Nc3cc(C)n(C)n3)nc21
Procedure, shortened: as §1

[4] = compound: CCn1cc(-c2ccnc3[nH]c(-c4cccc(CN(C)C)c4)cc23)c(-c2ccc(NC(=O)N(C)C)cc2)n1
Procedure, shortened: as §1

[5] = compound: CN1CCC(CNc2ccc3ncc(-c4cccc(OC(F)(F)F)c4)n3n2)CC1
Procedure, shortened: as §1

saracatinib = compound: CN1CCN(CCOc2cc(OC3CCOCC3)c3c(Nc4c(Cl)ccc5c4OCO5)ncnc3c2)CC1 [saracatinib]
Procedure, shortened: as §1

sotrastaurin = compound: CN1CCN(c2nc(C3=C(c4c[nH]c5ccccc45)C(=O)NC3=O)c3ccccc3n2)CC1 [sotrastaurin]
Procedure, shortened: as §1

alvocidib = compound: CN1CC[C@H](c2c(O)cc(O)c3c(=O)cc(-c4ccccc4Cl)oc23)[C@H](O)C1 [alvocidib]
Procedure, shortened: as §1

Tubastatin A = compound: CN1CCc2c(c3ccccc3n2Cc2ccc(C(=O)NO)cc2)C1 [Tubastatin A]
Procedure, shortened: as §1

[6] = compound: CNC(=O)C1=CC=CC=C1NC2=NC(=NC=C2Cl)NC3=C(C=C(C=C3)N4CCOCC4)OC
Procedure, shortened: as §1

defactinib = compound: CNC(=O)c1ccc(Nc2ncc(C(F)(F)F)c(NCc3nccnc3N(C)S(C)(=O)=O)n2)cc1 [defactinib]
Procedure, shortened: as §1

[7] = compound: CNc1nc(-c2ccc3c(N)n[nH]c3c2)cc(N2C[C@@H](C(=O)NC3CCCCC3)CC[C@H]2C)n1
Procedure, shortened: as §1

encorafenib = compound: COC(=O)N[C@@H](C)CNc1nccc(-c2cn(C(C)C)nc2-c2cc(Cl)cc(NS(C)(=O)=O)c2F)n1 [encorafenib]
Procedure, shortened: as §1

[8] = compound: COC(=O)[C@H](CCSC)NC(=O)C1=C(C=C(C=C1)NC[C@H](CS)N)C2=CC=CC=C2
Procedure, shortened: as §1

[9] = compound: COc1cc2nc(-c3cc(F)ccc3O)nc(N[C@@H]3CNC[C@H]3C(C)(C)O)c2cc1OC
Procedure, shortened: as §1

barasertib = compound: CCN(CCCOc1ccc2c(Nc3cc(CC(=O)Nc4cccc(F)c4)[nH]n3)ncnc2c1)CCOP(=O)(O)O [barasertib]
Procedure, shortened: as §1

alisertib = compound: COc1cc(Nc2ncc3c(n2)-c2ccc(Cl)cc2C(c2c(F)cccc2OC)=NC3)ccc1C(=O)O [alisertib]
Procedure, shortened: as §1

gefitinib = compound: COc1cc2ncnc(Nc3ccc(F)c(Cl)c3)c2cc1OCCCN1CCOCC1 [gefitinib]
Procedure, shortened: as §1

Measured: log2 fold change

ULK1 (UniProt O75385)
inactive: vemurafenib -0.033 | [1] 0.137 | [2] -0.099 | volasertib 0.033 | [3] 0.041 | [4] 0.06 | [5] 0.099 | saracatinib 0.058 | sotrastaurin -0.284 | alvocidib -0.086 | Tubastatin A -0.089 | [6] 0.021 | defactinib -0.024 | [7] -0.125 | encorafenib 0.039 | [8] 0.066 | [9] -0.215

VEZT (UniProt F8W8C2)
inactive: vemurafenib -0.116 | [1] -0.282 | barasertib 0.078 | [2] -0.063 | volasertib 0.06 | [3] 0.157 | [4] 0.078 | [5] 0.004 | sotrastaurin -0.316 | alvocidib 0.002 | Tubastatin A -0.123 | [6] 0.001 | defactinib 0.116 | encorafenib 0.065 | [8] 0.098 | [9] -0.06

URB1 (UniProt O60287)
inactive: vemurafenib 0.094 | [1] -0.046 | [2] -0.038 | volasertib 0.211 | [3] 0.012 | [4] -0.353 | [5] 0.013 | saracatinib 0.114 | sotrastaurin 0.036 | alvocidib -0.195 | Tubastatin A -0.068 | [6] 0.069 | defactinib -0.051 | [7] 0.034 | encorafenib 0.04 | [8] -0.071 | alisertib 0.07 | [9] -0.276 | gefitinib -0.081

ULBP2 (UniProt Q9BZM5)
inactive: vemurafenib -0.098 | [1] 0.03 | barasertib -0.037 | [2] 0.012 | volasertib 0.076 | [3] 0.042 | [4] 0.151 | [5] 0.045 | saracatinib -0.091 | sotrastaurin 0.097 | alvocidib -0.188 | Tubastatin A 0.013 | [6] -0.003 | defactinib -0.028 | [7] -0.033 | encorafenib 0.032 | [8] -0.037 | [9] 0.038

VAMP3 (UniProt Q15836)
inactive: vemurafenib 0.056 | [1] -0.05 | barasertib -0.006 | [2] 0.093 | volasertib 0.095 | [3] -0.102 | [4] 0.023 | [5] 0.033 | saracatinib 0.096 | sotrastaurin -0.067 | alvocidib -0.044 | Tubastatin A 0.035 | [6] 0.041 | defactinib -0.006 | [7] -0.017 | encorafenib 0.025 | [8] -0.031 | alisertib -0.021 | [9] -0.01 | gefitinib -0.207

UGCG (UniProt Q16739)
inactive: vemurafenib -0.027 | barasertib 0.269 | [3] -0.131 | saracatinib -0.027 | sotrastaurin 0.025 | Tubastatin A 0.081 | [6] 0.047 | defactinib -0.158 | [7] -0.161 | alisertib 0.051 | gefitinib 0.122

USP22 (UniProt Q9UPT9)
inactive: vemurafenib -0.019 | barasertib 0.008 | [2] 0.026 | [3] 0.034 | [4] 0.031 | [5] 0 | saracatinib -0.026 | sotrastaurin 0.018 | alvocidib 0.102 | Tubastatin A -0.044 | [6] 0.034 | defactinib 0.017 | [7] -0.027 | encorafenib -0.007 | [8] 0.055 | alisertib 0.02 | gefitinib -0.011

USP19 isoform 4 (UniProt O94966)
inactive: vemurafenib 0 | [1] 0.002 | [2] -0.14 | volasertib -0.039 | [3] -0.055 | saracatinib -0.045 | Tubastatin A 0.176 | [6] 0.013 | defactinib -0.036 | [7] -0.063 | encorafenib 0.013 | [8] 0 | [9] 0.153

USP36 (UniProt Q9P275)
inactive: vemurafenib 0.255 | [1] 0 | [2] 0.015 | volasertib -0.097 | [3] -0.041 | [4] 0.036 | [5] -0.125 | sotrastaurin 0.007 | alvocidib 0.069 | Tubastatin A -0.065 | defactinib -0.245 | encorafenib -0.028 | [8] 0.023 | alisertib 0.046 | [9] 0.112 | gefitinib 0.212

VCP (UniProt P55072)
inactive: vemurafenib -0.004 | [1] 0.011 | barasertib -0.042 | [2] 0.037 | volasertib 0.026 | [3] -0.015 | [4] 0.076 | [5] -0.013 | saracatinib 0.021 | sotrastaurin -0.015 | alvocidib 0.013 | Tubastatin A 0.045 | [6] -0.002 | defactinib -0.013 | [7] 0.027 | encorafenib -0.026 | [8] -0.037 | alisertib -0.002 | [9] -0.007 | gefitinib -0.007

UMAD1 (UniProt C9J7I0)
inactive: [1] 0.049 | volasertib 0.038 | [3] 0.093 | [4] 0.092 | [5] -0.112 | saracatinib 0.006 | sotrastaurin -0.071 | alvocidib 0.112 | Tubastatin A -0.012 | [7] 0.104 | alisertib 0.112 | [9] -0.361 | gefitinib -0.332

UTP23 (UniProt Q9BRU9)
inactive: [1] 0.06 | barasertib 0.02 | volasertib 0.02 | [3] 0.084 | [4] -0.017 | [5] -0.015 | saracatinib 0.025 | sotrastaurin -0.012 | alvocidib -0.112 | Tubastatin A -0.065 | [6] 0.169 | [7] -0.018 | [9] 0.066

USP15 isoform 3 (UniProt Q9Y4E8)
inactive: [1] -0.005 | volasertib 0.041 | saracatinib 0.036 | sotrastaurin -0.01 | [7] 0.043 | [9] 0.044

USP54 (UniProt Q70EL1)
inactive: sotrastaurin 0.041

UCP2 (UniProt P55851)
inactive: vemurafenib 0.09 | [3] -0.024 | sotrastaurin -0.001 | Tubastatin A 0.182 | defactinib 0.096 | alisertib 0.033 | gefitinib 0.045

Two consecutive records from above, quoted:
UMAD1 (UniProt C9J7I0)
inactive: [1] 0.049 | volasertib 0.038 | [3] 0.093 | [4] 0.092 | [5] -0.112 | saracatinib 0.006 | sotrastaurin -0.071 | alvocidib 0.112 | Tubastatin A -0.012 | [7] 0.104 | alisertib 0.112 | [9] -0.361 | gefitinib -0.332

UTP23 (UniProt Q9BRU9)
inactive: [1] 0.06 | barasertib 0.02 | volasertib 0.02 | [3] 0.084 | [4] -0.017 | [5] -0.015 | saracatinib 0.025 | sotrastaurin -0.012 | alvocidib -0.112 | Tubastatin A -0.065 | [6] 0.169 | [7] -0.018 | [9] 0.066

Carrying on.

UTRN isoform 2 (UniProt P46939)
inactive: barasertib -0.019 | [2] -0.318 | [4] 0.148 | [5] -0.003 | alvocidib -0.084 | [6] -0.166 | encorafenib -0.012 | [8] -0.037

USP7 (UniProt H3BND8)
inactive: [1] -0.063 | barasertib 0.177 | volasertib -0.006 | alisertib -0.154 | [9] 0.053 | gefitinib 0.089
